These are yes or no findings as the source states them, for the method shown. Some results given as binding are weak or reduced against the parent protein; the word gives no strength.
Target: isoamylase 1 (potato ISA1) (potato (Solanum tuberosum)) (UniProt Q84YG7)
Experiment: two-hybrid

B1: isoamylase 1 (potato ISA1) (enzyme, UniProt Q84YG7 1-793)
chain: MELLHCPSISTYKPKLSFHNHLFSRRSSNGVDFESIWRKSRSSVVNAAVDSGRGGVVKTAATAVVVEKPTTERCRFEVLSGKPLPFGATATDGGVNFAVFSRNATAATLCLITLSDLPEKRVTEQIFLDPLANKTGDVWHVFLKGDFENMLYGYKFDGKFCPEEGHYFDSSQIVLDPYAKAIVSRGEYGVLGPEDDCWPPMAGMVPSASDQFDWEGDLPLKFPQRDLVIYEMHVRGFTNHESSETKYPGTYLGVVEKLDHLKELGVNCIELMPCHEFNELEYYSYNSVLGDYKFNFWGYSTVNFFSPMGRYSSAGLSNCGLGAINEFKYLVKEAHKRGIEVIMDVVFNHTAEGNENGPILSFRGIDNSVFYTLAPKGEFYNYSGCGNTFNCNNPIVRQFIVDCLRYWVTEMHVDGFRFDLASILTRSSSSWNAVNVYGNSIDGDVITTGTPLTSPPLIDMISNDPILRGVKLIAEAWDCGGLYQVGMFPHWGIWSEWNGKYRDMVRQFIKGTDGFSGAFAECLCGSPNLYQKGGRKPWNSINFVCAHDGFTLADLVTYNNKHNLANGEDNKDGENHNNSWNCGEEGEFASIFVKKLRKRQMRNFFLCLMVSQGVPMIYMGDEYGHTKGGNNNTYCHDNYINYFRWDKKDESSSDFLRFCGLMTKFRHECESLGLDGFPTAERLQWHGHTPRTPDWSETSRFVAFTLVDKVKGELYIAFNASHLPVTITLPDRPGYRWQPFVDTGKPAPFDFLTDDVPERETAAKQYSHFLDANQYPMLSYSSIILLLSSADDA
  binding: binds

Source: paper doi:10.1101/2025.06.23.661224
